# Data as given in the supplement of paper PMC8975748.
# Structures can show the parent of a compound that is named as a salt. ± gives the standard deviation of the averaged measurements. This is one part of the list. Values are raw readings; no control value is given beside them.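 The yeast community starts from one strain carrying four plasmids, each with an amino-acid or uracil synthesis gene and a fluorescent protein. Random plasmid loss creates mixed prototroph and auxotroph subpopulations. Cells were fixed and counted by automated confocal fluorescence imaging, and DMSO-treated wells served as the vehicle reference.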
# System: Saccharomyces cerevisiae BY4741 SeMeCo community
# Assay: imaged cell count per well (cells); higher = more cells
# Conditions: 10 µM; 24 h; SM minimal medium
# Experimental: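 Same SeMeCo high-content imaging drug screen: Selleck FDA-approved drugs at 10 µM, 24 h in SM medium, 384-well plates, 3 replicates.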
row,Structure (SMILES),imaged cell count per well
1,CCOC(=O)OC(C)OC1=C(C(=O)Nc2ccccn2)N(C)S(=O)(=O)c2ccccc21 (stereo unspecified) [Ampiroxicam],31800 ± 8900
2,O=C(O)CCC(=O)OC[C@@H](NC(=O)C(Cl)Cl)[C@H](O)c1ccc([N+](=O)[O-])cc1 [Chloramphenicol sodium succinate],27900 ± 1800
3,COc1ccc(C[C@H](N)C(=O)N[C@H]2[C@@H](O)[C@H](n3cnc4c(N(C)C)ncnc43)O[C@@H]2CO)cc1 [Puromycin 2HCl],19300 ± 8700
4,O=C(O)c1ccccc1O [Salicylic acid],24500 ± 4500
5,COc1ccc2cc([C@H](C)C(=O)O)ccc2c1 [Naproxen Sodium],18700 ± 2900
6,CCOC(=O)C1=C(COCCN)NC(C)=C(C(=O)OC)C1c1ccccc1Cl (stereo unspecified) [Amlodipine],20500 ± 1300
7,CC(C)(C)[C@H]1CC[C@H](CC2=C(O)C(=O)c3ccccc3C2=O)CC1 [Buparvaquone],32900 ± 2100
8,C[C@H]1O[C@@H](O[C@H]2[C@@H](O)C[C@H](O[C@H]3[C@@H](O)C[C@H](O[C@H]4CC[C@@]5(C)[C@H](CC[C@@H]6[C@@H]5C[C@@H](O)[C@]5(C)[C@@H](C7=CC(=O)OC7)CC[C@]65O)C4)O[C@@H]3C)O[C@@H]2C)C[C@H](O)[C@@H]1O [Digoxin],25700 ± 8700
9,Clc1ccc(C(Cn2ccnc2)OCc2ccc(Sc3ccccc3)cc2)c(Cl)c1 (stereo unspecified) [Fenticonazole Nitrate],879 ± 240
10,O=C(O)Cc1ccccc1Nc1c(Cl)cccc1Cl [Diclofenac acid],23200 ± 1500
11,COc1ccc(C2CNC(=O)C2)cc1OC1CCCC1 (stereo unspecified) [Rolipram],25800 ± 3600
12,Cc1ccc(C(=O)C(C)CN2CCCCC2)cc1 (stereo unspecified) [Tolperisone HCl],21900 ± 3400
13,C[C@]12CC[C@@H]3c4ccc(O)cc4CC[C@H]3[C@@H]1C[C@@H](O)[C@@H]2O [Estriol],22800 ± 4600
14,NCC[C@H](O)C(=O)N[C@@H]1C[C@H](N)[C@@H](O[C@H]2O[C@H](CN)[C@@H](O)[C@H](O)[C@H]2O)[C@H](O)[C@H]1O[C@H]1O[C@H](CO)[C@@H](O)[C@H](N)[C@H]1O [Amikacin hydrate],19700 ± 1800
15,CC1(C)[C@H](C(=O)O)N2C(=O)C[C@H]2S1(=O)=O [Sulbactam sodium],18500 ± 4600
16,COc1cc2c(cc1OC)-c1cc3ccc(OC)c(OC)c3c[n+]1CC2 [Palmatine],24700 ± 2000

row,Structure (SMILES),imaged cell count per well
1,Cc1nc(Nc2ccc(F)cc2)nc(N2CCc3ccccc3C2C)c1C (stereo unspecified) [Revaprazan Hydrochloride],30300 ± 2000
2,OC1(c2ccc(Cl)c(C(F)(F)F)c2)CCN(CCCC(c2ccc(F)cc2)c2ccc(F)cc2)CC1 [Penfluridol],25400 ± 3600
3,C[C@]12CC[C@@H]3c4ccc(O)cc4C[C@@H](CCCCCCCCC[S+]([O-])CCCC(F)(F)C(F)(F)F)[C@H]3[C@@H]1CC[C@@H]2O (stereo partly specified) [Fulvestrant],23500 ± 4100
4,CC[C@@]1(O)C(=O)OCc2c1cc1n(c2=O)Cc2cc3c(CN(C)C)c(O)ccc3nc2-1 [Topotecan HCl],23800 ± 1800
5,Cc1[nH]cnc1CN1CCc2c(c3ccccc3n2C)C1=O [Alosetron Hydrochloride],18700 ± 8100
6,CC1(C)CC[C@]2(C(=O)O)CC[C@]3(C)C(=CC[C@@H]4[C@@]5(C)CC[C@H](O)C(C)(C)[C@@H]5CC[C@]43C)[C@@H]2C1 [Oleanolic Acid],24500 ± 4300
7,Clc1ccc(C(Cn2ccnc2)OCc2ccsc2Cl)c(Cl)c1 (stereo unspecified) [Tioconazole],3050 ± 680
8,CC(=O)OCC1=C(C(=O)O)N2C(=O)[C@@H](NC(=O)CSc3ccncc3)[C@H]2SC1 [Cephapirin Benzathine],19600 ± 10000
9,C#C[C@]1(O)CC[C@H]2[C@@H]3CCc4cc(OC5CCCC5)ccc4[C@H]3CC[C@@]21C [Quinestrol],23600 ± 5300
10,CCN(CC)CCOC(=O)c1ccc(N)cc1Cl [Chloroprocaine HCl],22300 ± 3800
11,CCc1cccc2c3c([nH]c12)C(CC)(CC(=O)O)OCC3 (stereo unspecified) [Etodolac],24400 ± 5000
12,N[C@@H]1CN(c2c(F)cc3c(=O)c(C(=O)O)cn([C@@H]4C[C@@H]4F)c3c2Cl)CC12CC2 [Sitafloxacin Hydrate],28200 ± 2400
13,Oc1cccc(O)c1 [Resorcinol],25800 ± 5200
14,C[N+](C)(C)CCOC(=O)CCC(=O)OCC[N+](C)(C)C [Succinylcholine Chloride Dihydrate],26000 ± 6000
15,COc1ccc2c(c1)c(CC(=O)OCC(=O)O)c(C)n2C(=O)c1ccc(Cl)cc1 [Acemetacin],22500 ± 8600

# Fetched by structure from the list above:
row,Structure (SMILES),imaged cell count per well
7,CC(C)(C)[C@H]1CC[C@H](CC2=C(O)C(=O)c3ccccc3C2=O)CC1 [Buparvaquone],32900 ± 2100
1,CCOC(=O)OC(C)OC1=C(C(=O)Nc2ccccn2)N(C)S(=O)(=O)c2ccccc21 (stereo unspecified) [Ampiroxicam],31800 ± 8900
